Patent US20010014454A1, “NOVEL METAL COMPLEXES” (priority 2000, published 2001)
Some results were stated once for a whole list of compounds, not compound by compound. At least one structure is not confirmed: it was looked up by name or label, or the drawing left a doubt.

Molecular target: T1, G-CSF receptor (Mus musculus, UniProt P40223)
T1 construct: they express endogenous G-CSF receptors; endogenous in cells; host or cells: NFS60 murine myeloid cells with a G-CSF-responsive luciferase reporter
T1 sequence (P40223 26-837): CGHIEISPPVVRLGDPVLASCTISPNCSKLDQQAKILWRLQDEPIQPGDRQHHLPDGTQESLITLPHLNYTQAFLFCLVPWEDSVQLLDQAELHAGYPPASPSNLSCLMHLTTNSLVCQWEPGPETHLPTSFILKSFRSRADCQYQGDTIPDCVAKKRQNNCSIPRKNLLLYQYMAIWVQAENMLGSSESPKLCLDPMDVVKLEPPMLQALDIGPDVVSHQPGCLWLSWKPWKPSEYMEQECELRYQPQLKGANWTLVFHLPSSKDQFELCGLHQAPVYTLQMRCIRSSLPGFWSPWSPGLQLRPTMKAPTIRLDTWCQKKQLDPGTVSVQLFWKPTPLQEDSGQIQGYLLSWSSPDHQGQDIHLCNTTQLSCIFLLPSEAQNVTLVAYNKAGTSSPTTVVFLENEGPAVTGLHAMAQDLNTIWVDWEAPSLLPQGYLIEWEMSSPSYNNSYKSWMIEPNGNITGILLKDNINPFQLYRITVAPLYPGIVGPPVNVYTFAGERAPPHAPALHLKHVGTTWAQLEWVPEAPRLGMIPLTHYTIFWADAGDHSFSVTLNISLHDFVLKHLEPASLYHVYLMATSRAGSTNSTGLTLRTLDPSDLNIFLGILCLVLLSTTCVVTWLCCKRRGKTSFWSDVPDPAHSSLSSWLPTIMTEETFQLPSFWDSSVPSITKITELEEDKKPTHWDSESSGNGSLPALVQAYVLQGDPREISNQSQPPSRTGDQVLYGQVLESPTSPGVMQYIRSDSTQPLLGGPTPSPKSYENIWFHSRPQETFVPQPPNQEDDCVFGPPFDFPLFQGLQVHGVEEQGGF
Assay: Luciferase reporter gene assay in G-CSF-responsive NFS60 cells
Format: cell-based, murine
Conditions: concentration range of 1 to 100 micromolar
Protocol: Activity of compound 1a is below the threshold of 150% over background. The study was performed as a Luciferase assay configured on the G-CSF-responsive NFS60 cell line as described in Tian et al., Science 281, 257-259 (1998). The experiments shown in FIGS. 2-8 used the same NFS60 cell line.
Compounds of the present invention are tested for potency as agonist of a dimeric cell-surface receptor in a Luciferase reporter gene assay such as described in Tian et al., Science 281. 257-259 (1998). For example, for G-CSF NFS60 cells (Holmes, et al., Proc. Natl. Acad. Sci. USA 82: 6687-6691 (1985)) are selected because they express endogenous G-CSF receptors closely matching the pattern of STAT (signal transducers and activators of transcription) activation observed in primary murine and human bone marrow cells.

[Zn].c1ccc(C23NC(=Nc4nc5ccccc5[nH]4)NC2(c2ccccn2)NC(=Nc2nc4ccccc4[nH]2)N3)nc1.c1ccc(C23NC(=Nc4nc5ccccc5[nH]4)NC2(c2ccccn2)NC(=Nc2nc4ccccc4[nH]2)N3)nc1 (centres unmarked) [Compound 1, Bis{2,5-bis[2-benzimidazolylimino]-3a,6a-bis(2-pyridyl)-1,2,3,3a,4,5,6,6a-octaliydroimidazo[4,5-d]imidazole-N,N′}-zinc(II)]
activation, % of control, luciferase assay: above 150 % of control

c1ccc(C23NC(=Nc4nc5ccccc5[nH]4)NC2(c2ccccc2)NC(=Nc2nc4ccccc4[nH]2)N3)cc1 (centres unmarked) [Compound 2a, 2,5-Bis[2-benzimidazolylimino]-3a,6a-diphenyl-1,2,3,3a,4,5,6,6a-octakhydroimidazo[4,5-d]imidazole]
activation, % of control, luciferase assay: above 150 % of control
